Values quoted from earlier work, collected in publication PMC5756113 (Peptides, 2017).

Conditions: cited from earlier work

Compound: CN1CC[C@]23c4c5ccc(O)c4O[C@H]2[C@@H](O)C=C[C@H]3[C@H]1C5 [morphine]
- Brain uptake: less than 0.02 %Inj/g
